Among all 390,000 compounds or so, about 4,000 (1%) were called active. The shares of active, inactive and inconclusive entries below differ from those in the screen. Calls follow the shape of the dose curve; as a rule, active = well fitted inhibition curve with a large enough effect; inconclusive = small, poorly fitted or top-dose-only effect, or another doubt; inactive = no such curve, though single readings can be large or run the other way. Potencies beside an inconclusive call are fits to weak or partial responses and may not hold up.
molecular target: DNA polymerase iota (Homo sapiens) (UniProt Q9UNA4); test: qHTS for Inhibitors of Polymerase Iota; conditions: Pol iota fluorescent replication assay, 10 min; series mostly up to 115 µM
Procedure, shortened: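 Fluorescent replication assay read twice, at 0 min and 10 min after adding 50 nM (final) substrate. Enzyme (10 nM) and compounds were first incubated 15 min at room temperature; enzyme-free buffer wells were negative controls.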
Potency is read from the fitted curve at half-maximal effect.

Protein sequences, listed by entry. Tags and fused reporters are not part of them. Lines headed by an entry give the natural chain unless they say otherwise; changes in a name come on top.
UniProt Q9UNA4: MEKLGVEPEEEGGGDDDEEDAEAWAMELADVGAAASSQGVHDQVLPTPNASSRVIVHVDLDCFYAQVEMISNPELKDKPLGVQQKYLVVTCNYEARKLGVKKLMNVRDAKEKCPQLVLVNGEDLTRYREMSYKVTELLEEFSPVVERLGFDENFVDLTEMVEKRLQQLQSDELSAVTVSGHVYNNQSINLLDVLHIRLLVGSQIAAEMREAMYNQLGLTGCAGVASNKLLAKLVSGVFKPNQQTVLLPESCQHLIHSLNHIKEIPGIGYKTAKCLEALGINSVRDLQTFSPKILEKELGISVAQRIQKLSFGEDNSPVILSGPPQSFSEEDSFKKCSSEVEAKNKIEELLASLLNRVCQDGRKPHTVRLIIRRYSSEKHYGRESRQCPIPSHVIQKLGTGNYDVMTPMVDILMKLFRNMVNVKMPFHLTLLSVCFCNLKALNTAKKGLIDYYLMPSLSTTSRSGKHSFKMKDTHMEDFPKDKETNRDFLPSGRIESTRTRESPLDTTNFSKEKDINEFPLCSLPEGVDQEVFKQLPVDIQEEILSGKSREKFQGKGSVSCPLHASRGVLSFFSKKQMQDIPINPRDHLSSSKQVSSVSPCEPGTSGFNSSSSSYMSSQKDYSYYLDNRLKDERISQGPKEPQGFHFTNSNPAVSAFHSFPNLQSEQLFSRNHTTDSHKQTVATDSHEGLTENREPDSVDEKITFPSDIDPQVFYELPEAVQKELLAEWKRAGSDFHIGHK

`Oc1cc(Nc2ccccc2)cc2cccnc12` was tested. Which Potency did it give?
Its Potency is “inactive”.

For `COc1cc(OC)cc(C(=O)N2CCN(c3ccccc3F)CC2)c1`, which Potency is on record?
The Potency was inconclusive: 14.1 µM [inhibitor, single point].

With `CC(=O)NS(=O)(=O)c1ccc2c(c1)Cc1cc(S(=O)(=O)NC(C)=O)ccc1-2` as the compound, how does the Potency read?
Its Potency is inconclusive: 63.1 µM [inhibitor, single point].

How did the Potency turn out when `CCOP(=O)(OCC)C(C)(C)NC(=O)Nc1ccc(Cl)c(Cl)c1` was run?
The Potency was “inactive”.

For `CC(NC(=O)c1cccs1)C(c1cccs1)N1CCN(c2ccccc2)CC1` (centres undefined), which Potency is on record?
Its Potency is inconclusive: 15.8 µM [inhibitor, single point].

With `CCN(CC)C(=O)COc1ccc(-c2nnc(Nc3ccc(OC)c(C(=O)NC)c3)c3ccccc23)cc1` as the compound, how does the Potency read?
The Potency was inconclusive: 22.4 µM [inhibitor, partial curve, poor fit].

`Cc1sc2ncn(CC(=O)N(C)c3cccc(C(F)(F)F)c3)c(=O)c2c1S(=O)(=O)N1CCN(c2ncccn2)CC1` was tested. Which Potency did it give?
The Potency was inconclusive: 79.4 µM [inhibitor, partial curve, poor fit].

`O=C1CN(C(=O)CSc2nc3ccccc3c(=O)n2CCCN2CCOCC2)c2ccccc2N1` was tested. Which Potency did it give?
Its Potency is inconclusive: 89.1 µM [inhibitor, single point].

`O=c1c(O)c(-c2ccccc2)oc2cc(O)cc(O)c12` was tested. Which Potency did it give?
Its Potency is “inactive”.

With `COc1ccc(OC)c(N/C=C/C(=O)c2ccccc2)c1` as the compound, how does the Potency read?
Its Potency is “inactive”.

Which Potency does the source give for `COC(=O)CCCC1=CC2=CC(=O)C(C)(OC(=O)c3cccs3)C(=O)C2=CN1Cc1ccc2c(c1)OCO2` (centres undefined) here?
Its Potency is active: 31.6 µM.

With `O=C(NC1CC2CCCC(C1)N2C(=O)NC1CCCCC1)c1ccc(F)cc1` (centres undefined) as the compound, how does the Potency read?
The Potency was inconclusive: 10 µM [inhibitor, partial curve, poor fit].

Which Potency does the source give for `CCN(CC(=O)Nc1ccc(S(N)(=O)=O)cc1)S(=O)(=O)c1cc(C)ccc1OC` here?
Its Potency is “inactive”.

With `C=CC1=C(C(=O)O)N2C(=O)C(NC(=O)Cc3ccccc3)C2SC1` (centres undefined) as the compound, how does the Potency read?
The Potency was active: 12.6 µM.

For `O=C(CC(NCc1cccnc1)C(=O)O)Nc1ccc(O)cc1` (centres undefined), which Potency is on record?
Its Potency is inconclusive: 14.1 µM [inhibitor, partial curve, poor fit].

With `Clc1ccc(-c2nnn3c2nc(NCc2ccc4c(c2)OCO4)c2ccccc23)cc1` as the compound, how does the Potency read?
Its Potency is “inactive”.

How did the Potency turn out when `CC(C)(CO)NC(=S)NCc1ccco1` was run?
The Potency was inconclusive: 31.6 µM [inhibitor, partial curve, poor fit].

`COc1cc(OC)c(NC(=O)CCNS(=O)(=O)c2ccc3c(c2)CC(C)N3C(C)=O)cc1Cl` (centres undefined) was tested. Which Potency did it give?
The Potency was “inactive”.

`CCOc1ccc(C2/C(=C(\O)c3cccc(OC)c3)C(=O)C(=O)N2c2ccccn2)cc1OC` (centres undefined) was tested. Which Potency did it give?
The Potency was inconclusive: 112 µM [inhibitor, partial curve, poor fit].

How did the Potency turn out when `COc1cccc(C(=O)C2CCCN(C(=O)CCC3=NNC(=O)CC3)C2)c1` (centres undefined) was run?
The Potency was inconclusive: 4.47 µM [inhibitor, full curve, poor fit].

How did the Potency turn out when `COc1ccc(OCc2cc(C(=O)N3CCC(OC)CC3)no2)c2ccccc12` was run?
The Potency was inconclusive: 28.2 µM [inhibitor, single point].

With `Cc1ccc(NC(=O)C2CCC(CNS(=O)(=O)c3ccc4c(c3)C(C)(C)C(=O)N4C)CC2)cc1` (centres undefined) as the compound, how does the Potency read?
Its Potency is inconclusive: 89.1 µM [inhibitor, partial curve, poor fit].

With `O=C1C(=O)N(Cc2ccco2)C(c2cccc(Cl)c2)/C1=C(\O)c1ccc2c(c1)OCCO2` (centres undefined) as the compound, how does the Potency read?
The Potency was inconclusive: 39.8 µM [inhibitor, single point].

For `Cc1ccc(NC(=O)CCC(=O)N2CCSc3ccccc32)cc1`, which Potency is on record?
The Potency was “inactive”.

How did the Potency turn out when `O=C(NCc1ccc(C(F)(F)F)cc1)C1CC(c2cccc(F)c2)=NO1` (centres undefined) was run?
The Potency was inconclusive: 25.1 µM [inhibitor, full curve, poor fit].

How did the Potency turn out when `C#CCOCCOCCOCCNc1nc(N2CCN(C(=O)[C@H](C)n3cc(CCCN=C(N)N)nn3)CC2)nc(N2CCN(C(=O)[C@H](C)n3cc(CCCN=C(N)N)nn3)CC2)n1` was run?
Its Potency is inconclusive: 3.16 µM [inhibitor, full curve, poor fit].

`COc1cc(Nc2nc3ccccc3nc2NS(=O)(=O)c2ccc([N+](=O)[O-])cc2)cc(OC)c1OC` was tested. Which Potency did it give?
The Potency was inconclusive: 35.5 µM [inhibitor, partial curve].

Which Potency does the source give for `O=C(/C=C1\SC(=O)NC1=O)Nc1ccc(C(=O)O)cc1` here?
Its Potency is inconclusive: 12.6 µM [inhibitor, full curve, poor fit].

With `O=S(=O)(Nc1ccc(-c2nc3cccnc3s2)cc1)c1ccc(Cl)s1` as the compound, how does the Potency read?
Its Potency is “inactive”.

`Nc1ccc2oc(-c3cccc(Br)c3)nc2c1` was tested. Which Potency did it give?
The Potency was inconclusive: 7.08 µM [inhibitor, single point].

For `O=C(CSc1nc(NS(=O)(=O)c2ccccc2)cc(=O)[nH]1)Nc1cccc(C(F)(F)F)c1`, which Potency is on record?
The Potency was inconclusive: 63.1 µM [inhibitor, single point].

`O=S(c1ccc2ccccc2c1)c1cnns1` (centres undefined) was tested. Which Potency did it give?
The Potency was inconclusive: 39.8 µM [inhibitor, partial curve, poor fit].

How did the Potency turn out when `O=C(c1ccoc1)N1CCC2(CC1)Oc1ccc(F)cc1C(=O)C21CC(c2cccnc2)=NO1` (centres undefined) was run?
The Potency was inconclusive: 17.8 µM [inhibitor, full curve, poor fit].

`C[C@@H](C(=O)O)[C@H]1C[C@]1(C)[C@H](NC(=O)OCc1ccccc1)c1ccccc1` was tested. Which Potency did it give?
Its Potency is inconclusive: 1.12 µM [inhibitor, full curve, poor fit].

`CCN(CC)CCNS(=O)(=O)c1ccc2[nH]cc(C(=O)O)c(=O)c2c1` was tested. Which Potency did it give?
Its Potency is inconclusive: 50.1 µM [inhibitor, partial curve, poor fit].

With `C=CCSc1nnc(NC(=O)c2cccc(S(=O)(=O)N3CCOCC3)c2)s1` as the compound, how does the Potency read?
The Potency was inconclusive: 89.1 µM [inhibitor, partial curve, poor fit].

Which Potency does the source give for `CC(=O)c1c(COC(=O)c2ccncc2)nc2ccccc2[n+]1[O-]` here?
Its Potency is inconclusive: 10 µM [inhibitor, partial curve, poor fit].

Which Potency does the source give for `COc1ccc(C(C)C)cc1S(=O)(=O)NC1CCCC1` here?
The Potency was “inactive”.

`NC(=O)C1(N2CCCCC2)CCN(C(=S)Nc2ccc(S(N)(=O)=O)cc2)CC1` was tested. Which Potency did it give?
Its Potency is inconclusive: 31.6 µM [inhibitor, single point].

How did the Potency turn out when `CCc1ccccc1Nc1cc(C(=O)NCCCN(C)C2CCCCC2)c2ccccc2n1` was run?
The Potency was inconclusive: 44.7 µM [inhibitor, single point].

For `BrC(=C\c1ccccc1)/C=N/Nc1ccc2nncn2n1`, which Potency is on record?
The Potency was inconclusive: 20 µM [inhibitor, full curve, poor fit].

With `O=C(CSc1nc2c(cnn2-c2ccc(F)cc2)c(=O)[nH]1)Nc1ccccc1C(F)(F)F` as the compound, how does the Potency read?
Its Potency is inconclusive: 28.2 µM [inhibitor, partial curve, poor fit].

For `O=C(N/N=C\C=C\c1ccco1)C1COc2ccccc2O1` (centres undefined), which Potency is on record?
Its Potency is inconclusive: 22.4 µM [inhibitor, partial curve, poor fit].

`COc1ccc(Cl)cc1NC(=O)c1ccc2c(SCC(=O)O)c3c(nc2c1)CCCC3` was tested. Which Potency did it give?
The Potency was inconclusive: 50.1 µM [inhibitor, partial curve].

With `CCOC(=O)c1sc(N/N=C/c2cc(Br)c(O)c(OC)c2)nc1C` as the compound, how does the Potency read?
The Potency was inconclusive: 5.62 µM [inhibitor, full curve].

`CCc1ccc(NC(=O)CS(=O)CC(=O)Nc2ccc(N3CCOCC3)cc2)cc1` (centres undefined) was tested. Which Potency did it give?
Its Potency is inconclusive: 14.1 µM [inhibitor, partial curve, poor fit].

For `COc1ccc(C)cc1Nc1n[n+](-c2ccccc2)c(-c2ccc(OC)c(OC)c2OC)s1`, which Potency is on record?
The Potency was inconclusive: 39.8 µM [inhibitor, single point].

Which Potency does the source give for `C=CCN1C=C2C(=O)C(C)(OC(=O)c3cnc4ccccc4n3)C(=O)C=C2C=C1/C=C/COC` (centres undefined) here?
The Potency was inconclusive: 39.8 µM [inhibitor, partial curve, poor fit].

With `COc1cc(/C=C2\SC(=S)N(C(C(=O)O)c3ccccc3)C2=O)cc(OC)c1OC` (centres undefined) as the compound, how does the Potency read?
Its Potency is inconclusive: 14.1 µM [inhibitor, partial curve, poor fit].

Which Potency does the source give for `COc1ccccc1OCc1nc(-c2cccc(C)c2)no1` here?
Its Potency is inconclusive: 89.1 µM [inhibitor, single point].

`O=C(/C=C/c1ccc(O)cc1)c1ccccc1` was tested. Which Potency did it give?
The Potency was “inactive”.

`O=C(O)c1ccc(C2Nc3ccccc3-c3nnc(SCc4ccc(Cl)cc4)nc3O2)cc1` (centres undefined) was tested. Which Potency did it give?
The Potency was inconclusive: 79.4 µM [inhibitor, partial curve].

How did the Potency turn out when `Cc1ccc(-c2nnc(Nc3ccccc3)o2)cc1` was run?
Its Potency is inconclusive: 100 µM [inhibitor, partial curve, poor fit].

With `COCCCNC(=O)CCn1c(=O)c2ccccc2n(CC(=O)NCCc2ccc(OC)c(OC)c2)c1=O` as the compound, how does the Potency read?
The Potency was inconclusive: 100 µM [inhibitor, single point].

For `CC(=O)OC[C@H]1O[C@@H](Oc2cc(O)cc3oc(-c4ccc(O)cc4)cc(=O)c23)[C@H](O[C@@H]2O[C@@H](C)[C@H](O)[C@@H](O)[C@H]2O)[C@@H](O)[C@@H]1O`, which Potency is on record?
The Potency was inconclusive: 50.1 µM [inhibitor, partial curve, poor fit].

Which Potency does the source give for `CSc1ccc(C2C(C(=O)c3ccco3)=C(O)C(=O)N2c2nnc(SC)s2)cc1` (centres undefined) here?
The Potency was inconclusive: 3.16 µM [inhibitor, full curve, poor fit].

For `CC(=O)Nc1ccc(SCC(=O)Nc2cc(C(C)(C)C)nn2-c2ccccc2)cc1`, which Potency is on record?
The Potency was inconclusive: 56.2 µM [inhibitor, partial curve, poor fit].

`CCn1ncc([N+](=O)[O-])c1C(=O)NC1CCCCC1` was tested. Which Potency did it give?
Its Potency is inconclusive: 10 µM [inhibitor, partial curve, poor fit].

How did the Potency turn out when `CCOC(=O)C1=C(Cc2ccc(F)cc2)C(=O)c2ccccc2C1=O` was run?
The Potency was inconclusive: 17.8 µM [inhibitor, partial curve, poor fit].

Reference: PubChem BioAssay AID588590 (National Center for Advancing Translational Sciences (NCATS), 2011)
